{
  "sequences": {"note": "By UniProt entry, the sequences of proteins in these tests, tags left out. Where a name states a change or a piece, a line headed by the entry shows the natural chain unless it says otherwise.", "UniProt P04062": "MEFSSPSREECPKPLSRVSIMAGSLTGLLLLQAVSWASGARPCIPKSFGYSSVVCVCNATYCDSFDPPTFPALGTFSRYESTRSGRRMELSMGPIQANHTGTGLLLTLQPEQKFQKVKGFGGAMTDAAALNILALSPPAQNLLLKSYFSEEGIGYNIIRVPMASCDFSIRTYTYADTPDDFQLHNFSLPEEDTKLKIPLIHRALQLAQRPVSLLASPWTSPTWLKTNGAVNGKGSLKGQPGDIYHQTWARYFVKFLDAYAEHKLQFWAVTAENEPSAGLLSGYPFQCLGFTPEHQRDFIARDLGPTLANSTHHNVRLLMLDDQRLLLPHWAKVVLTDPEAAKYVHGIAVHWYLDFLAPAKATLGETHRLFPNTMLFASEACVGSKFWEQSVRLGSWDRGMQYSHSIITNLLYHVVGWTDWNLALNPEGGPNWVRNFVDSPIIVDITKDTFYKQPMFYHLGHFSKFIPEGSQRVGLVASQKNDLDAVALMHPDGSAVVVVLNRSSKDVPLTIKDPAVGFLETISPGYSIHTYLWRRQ"},
  "source": "PubChem BioAssay AID488849",
  "about": "(National Center for Advancing Translational Sciences (NCATS), 2010)",
  "note": "The inconclusive results got no clear call from the source; some entries with a clear call stand among them for comparison. A potency beside an inconclusive call is a rough fit, not a confirmed value. Active and inactive are the calls of the source. The call rests on the fitted dose curve; in most records, active means well fitted activation curve with a large enough effect; inconclusive means small, poorly fitted or top-dose-only effect; inactive means flat fitted curve, though single readings scatter.",
  "data": [
    {"molecular_target": "Lysosomal acid glucosylceramidase (Homo sapiens) (UniProt P04062)", "assay": "qHTS Assay for Inhibitors and Activators of N370S glucocerebrosidase as a Potential Chaperone Treatment of Gaucher Disease: Activity in Non-Mutant Spleen Confirmation for Probe SAR", "conditions": "human spleen homogenate, 4-MU-beta-glucoside fluorescence; series mostly up to 57.5 µM", "excerpt": "NIH Chemical Genomics Center [NCGC] NIH Molecular Libraries Probe Production Centers Network [MLPCN] MLPCN Grant: MH086442-01 Assay Submitter (PI): Wei Zheng Glucocerebrosidase (GC) catalyzes the hydrolysis of beta-glucocerebroside to glucose and ceramide in lysosomes. Mutations in the glucocerebrosidase gene result in Gaucher disease, an autosomal recessive lysosomal storage disorder. Many of the mutations encountered in patients with Gaucher disease are missense alterations that may cause misfolding, decreased stability and/or mistrafficking of this lysosomal protein. […] These inhibitors include iminosugar analogs and three non-iminosugar inhibitors identified from a previous HTS of 62,000 compounds with the wild type recombinant enzyme. However, the enhancement of enzyme activity by the chaperone action of an enzyme inhibitor must be balanced against the direct inhibition of the enzyme. An enzyme activator could also function as a chaperone by binding to the enzyme and helping to correct its misfolding and mistrafficking. While activators for GC have not yet been identified, they may have better therapeutic potential than inhibitors. Therefore the discovery and development of chemical activators may provide a new strategy for the chaperone therapy. We have optimized a new assay using N370S mutant GC derived from the spleen of a Gaucher patient. […] In addition, the MLPCN compound library has expanded, which increases the chance of finding new and better probes. This confirmation assay tests for compound activity in spleen homogenate containing wildtype enzyme.\nNCGC Assay Protocol Summary: This is a fluorogenic enzyme assay with 4-methylumbelliferyl-beta-D-glucopyranoside as the substrate and wildtype glucocerebrosidase from human spleen homogenate as the enzyme preparation. Upon the hydrolysis of this fluorogenic substrate, the resulting product, […] which can be detected by a standard fluorescence plate reader. Data were normalized to the controls for basal activity (without enzyme) and 100% activity (with enzyme). The AC50 values were determined from concentration-response data modeled with the standard Hill equation. Assay buffer: 50 mM citric acid (titrated with potassium phosphate to pH 5.0), 100 mM potassium chloride, 10 mM sodium chloride, 1 mM magnesium chloride, 0.01% Tween-20. 1536-well assay protocol: (1) Add 2 ul/well of spleen homogenate (27 ug final) (2) Add 23 nL compounds in DMSO solution. The final titration was 0.5 nM to 58 uM. (3) Add 2 ul of substrate (1 mM final) (4) Incubate at 37C for 40 min. (5) Add 2 ul stop solution (1M NaOH and 1M Glycine mixture, pH 10) (6) Detect the assay plate in a ViewLux plate reader (PerkinElmer) with Ex=365 nm and Em=440nm. Keywords: Glucocerebrosidase, beta-glucosidase, Gaucher Disease, pharmacological chaperone, chaperone therapy, high throughput screening, glucocerebrosidase inhibitor, MLSMR, MLSCN, NIH Roadmap, qHTS and NCGC", "values": [
      {"smiles": "O=C(Nc1cnn(Cc2ccc(F)cc2)c1)c1cnn2c(C(F)F)cc(-c3ccccc3)nc12", "Potency": "inconclusive: 20.6 µM [activator, partial curve]"},
      {"smiles": "Cc1cc(C)n2ncc(C(=O)Nc3cccc(C(F)(F)F)c3)c2n1", "Potency": "inconclusive: 65.1 µM [activator, partial curve]"},
      {"smiles": "Cc1cc(C)n2ncc(C(=O)Nc3ccccc3)c2n1", "Potency": "inconclusive: 16.3 µM [activator, partial curve]"},
      {"smiles": "Cc1cc(C)n2ncc(C(=O)NC(C)C)c2n1", "Potency": "inactive"},
      {"smiles": "Cc1cc(C)n2ncc(C(=O)NCc3ccco3)c2n1", "Potency": "inconclusive: 81.9 µM [activator, partial curve]"},
      {"smiles": "CC(=O)Nc1ccc(NC(=O)c2cnn3c(C)cc(C)nc23)cc1", "Potency": "inactive"},
      {"smiles": "COc1ccc(NC(=O)c2cnn3c(C)cc(C)nc23)cc1Cl", "Potency": "inconclusive: 20.6 µM [activator, partial curve]"},
      {"smiles": "CNC(=O)c1cnn2c(C)cc(C)nc12", "Potency": "inactive"},
      {"smiles": "Cc1cc(C)n2ncc(C(=O)Nc3ccc(C(C)(C)C)cc3)c2n1", "Potency": "inconclusive: 16.3 µM [activator, partial curve]"},
      {"smiles": "CC(=O)c1cccc(NC(=O)c2cnn3c(C)cc(C)nc23)c1", "Potency": "inconclusive: 51.7 µM [activator, partial curve]"},
      {"smiles": "Cc1cc(C)n2ncc(C(=O)NCc3ccccc3)c2n1", "Potency": "inconclusive: 81.9 µM [activator, partial curve]"},
      {"smiles": "COc1ccc(NC(=O)c2cnn3c(C)cc(C)nc23)cc1", "Potency": "active: 20.6 µM"},
      {"smiles": "CC(=O)Nc1ccccc1NC(=O)c1cnn2c(C)cc(C)nc12", "Potency": "inactive"},
      {"smiles": "O=C(Nc1ccccc1Sc1ccccc1)c1cnn2c1NC(=C1CC1)C=C2C(F)F", "Potency": "active: 4.61 µM"},
      {"smiles": "Cc1cc(C)n2ncc(C(=O)Nc3cccc(C#N)c3)c2n1", "Potency": "inactive"},
      {"smiles": "Cc1cc(C)n2ncc(C(=O)Nc3ccccc3C)c2n1", "Potency": "inconclusive: 41.1 µM [activator, partial curve]"},
      {"smiles": "Cc1cccc(NC(=O)c2cnn3c(C)cc(C)nc23)c1", "Potency": "active: 8.19 µM"},
      {"smiles": "Cc1cc(C)n2ncc(C(=O)NCC(C)C)c2n1", "Potency": "inconclusive: 130 µM [activator, partial curve]"},
      {"smiles": "Cc1cc(C)n2ncc(C(=O)NC3CCCCC3)c2n1", "Potency": "inconclusive: 32.6 µM [activator, partial curve]"},
      {"smiles": "Cc1cc(C)n2ncc(C(=O)Nc3ccc(C#N)cc3)c2n1", "Potency": "inconclusive: 65.1 µM [activator, partial curve]"},
      {"smiles": "COc1ccc(NC(=O)c2cnn3c(C)cc(C)nc23)cc1F", "Potency": "inconclusive: 3.26 µM [activator, partial curve]"},
      {"smiles": "COc1cc(NC(=O)c2cnn3c(C)cc(C)nc23)cc(OC)c1OC", "Potency": "inconclusive: 130 µM [activator, partial curve]"},
      {"smiles": "COc1ccc(NC(=O)c2cnn3c(C)cc(C)nc23)cc1OC", "Potency": "inactive"},
      {"smiles": "CC(=O)c1ccc(NC(=O)c2cnn3c(C)cc(C)nc23)cc1", "Potency": "inconclusive: 517 µM [activator, partial curve]"},
      {"smiles": "Cc1cc(C)n2ncc(C(=O)Nc3ccc(C)c(C)c3)c2n1", "Potency": "active: 4.11 µM"},
      {"smiles": "CCc1ccc(NC(=O)c2cnn3c(C)cc(C)nc23)cc1", "Potency": "active: 2.91 µM"},
      {"smiles": "Cc1cc(C)n2ncc(C(=O)Nc3ccncc3)c2n1", "Potency": "inactive"}
    ]}
  ]
}
